Reference: patent publication US20230096781A1, “METHODS OF CONTROLLING BODYWEIGHT BY MODULATING PHOSPHATIDYLINOSITOL 5-PHOSPHATE 4-KINASE BETA ACTIVITY” (University of Cincinnati, priority 2020, published 2023)
Some of these results come from one statement about several compounds together. At least one compound was matched to its structure with a doubt left.

target: T1, PI5P4Kβ (Homo sapiens, UniProt P78356); assay: NMR-based PNT hydrolysis assay; format: biochemical; settings: WT PI5P4Kβ; average of three experiments
T1 sequence (P78356 1-416): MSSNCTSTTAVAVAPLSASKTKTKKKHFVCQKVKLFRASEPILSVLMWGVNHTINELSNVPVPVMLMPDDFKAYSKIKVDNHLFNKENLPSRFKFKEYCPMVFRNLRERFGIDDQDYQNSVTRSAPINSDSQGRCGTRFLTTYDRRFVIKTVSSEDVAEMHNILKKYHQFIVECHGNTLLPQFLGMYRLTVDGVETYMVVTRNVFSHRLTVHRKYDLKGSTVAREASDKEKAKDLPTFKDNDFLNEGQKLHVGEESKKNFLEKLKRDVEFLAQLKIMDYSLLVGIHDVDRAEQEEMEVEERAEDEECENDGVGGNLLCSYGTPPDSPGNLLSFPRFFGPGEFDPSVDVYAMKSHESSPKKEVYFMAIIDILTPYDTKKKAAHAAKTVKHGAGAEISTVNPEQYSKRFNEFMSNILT
Method: (A) The PNT hydrolysis activity of PI5P4Kβ. indicative of the kinase activity of PI5P4Kβ. was assessed by the signal intensity ratios of diphosphorylated/triphosphorylated nucleotides after the reaction. The average values from three experiments are shown with error bars (SD). Highly hydrolyzed nucleotides (>0.1 of the ratios) were shown for GTP, ITP, XTP, 6-thio-GTP, and 2a-ATP. (B), (C), and (D) show interactions of the PI5P4Kβ-ITP, PI5P4Kβ-XTP, and PI5P4Kβ-2a-ATP complexes, respectively. Dotted lines represent hydrogen bonds between the PNTs and PI5P4Kβ.
Next, the mechanism of the GTP preference of PI5P4Kβ was investigated using a series of ATP and GTP analogs. Based on analysis of the GTP-PI5P4Kβ interaction (FIG. 10(B)), 10 PNTs with different configurations at the 2nd and 6th positions of the purine base (NH2(2) and O(6) in guanine base, respectively) were chosen (FIG. 10(A)). The hydrolysis activities of PI5P4Kβ for these PNTs were quantified by an NMR-based assay (data not shown). […] On the other hand, O(6) seems to be required for the activity. […] This view is also supported by the larger energetic contribution of the O(6) moiety compared to the NH2(2) moiety in the FMO interaction analysis between GTP and PI5P4Kβ (FIG. 15).

Signal intensity ratio of diphosphorylated/triphosphorylated nucleotides after the reaction, > 0.1:
Nc1nc(N)c2ncn([C@@H]3O[C@H](COP(=O)(O)OP(=O)(O)OP(=O)(O)O)[C@@H](O)[C@H]3O)c2n1 [2a-ATP]
Nc1nc(=S)c2ncn([C@@H]3O[C@H](COP(=O)(O)OP(=O)(O)OP(=O)(O)O)[C@H](O)C3O)c2[nH]1 (some centres unmarked) [6-thio-GTP]
Nc1nc2c(ncn2[C@@H]2O[C@H](COP(=O)(O)OP(=O)(O)OP(=O)(O)O)[C@@H](O)[C@H]2O)c(=O)[nH]1 [GTP, guanosine triphosphate]
O=P(O)(O)OP(=O)(O)OP(=O)(O)OC[C@H]1O[C@@H](n2cnc3c(O)ncnc32)[C@H](O)[C@@H]1O [ITP, inosine triphosphate]
O=c1[nH]c(=O)c2ncn([C@@H]3O[C@H](COP(=O)(O)OP(=O)(O)OP(=O)(O)O)[C@@H](O)[C@H]3O)c2[nH]1 [XTP, xanthosine triphosphate]
